Some of the results follow. Baselines shift from plate to plate; read single values as rough.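 Hits were defined as a z-score below −3.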
These compounds were tested against T1, YTHDF1 YTH domain (aa 365-554) (UniProt Q9BYJ9) (assay: tryptophan fluorescence intensity z-score (mean); higher = higher fluorescence, less quenching (negative = binding / quenching)). Settings: 10 µM.
T1 sequence (whole entry): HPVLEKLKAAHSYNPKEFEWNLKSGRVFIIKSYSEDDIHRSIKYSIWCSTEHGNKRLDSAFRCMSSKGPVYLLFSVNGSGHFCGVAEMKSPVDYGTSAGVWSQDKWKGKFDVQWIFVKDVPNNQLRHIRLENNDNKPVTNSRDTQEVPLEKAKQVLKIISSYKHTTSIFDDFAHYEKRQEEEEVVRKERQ

Tryptophan fluorescence intensity z-score, inactive:
CC(C)(C)CC(C)(C)c1ccc(OCCOCC[N+](C)(C)Cc2ccccc2)cc1 (plate: M 1-2) -0.345
COc1ccc(CCC(=O)c2c(O)cc(O[C@@H]3O[C@H](CO)[C@@H](O)[C@H](O)[C@H]3O[C@@H]3O[C@@H](C)[C@H](O)[C@@H](O)[C@H]3O)cc2O)cc1O (plate: M 23-24) -0.0612
CCCCOc1ccc(C(=O)CCN2CCCCC2)cc1 (plate: M 3-4) -0.156
C=C1C(=O)O[C@H]2[C@H]1CC/C(C)=C/CC[C@@]1(C)O[C@@H]21 (plate: M 19-20) 0.218
COc1cccc(O)c1O (plate: M 21-22) 0.22
COc1ccc(-c2cc(=O)c3c(OC)c(OC)c(OC)c(OC)c3o2)cc1OC (plate: M 19-20) -0.0303
CCC[C@@H]1C[C@@H](C(=O)N[C@@H]([C@H]2O[C@H](SC)[C@H](O)[C@@H](O)[C@H]2O)[C@@H](C)O)N(C)C1 (plate: M 3-4) 0.0495
C=C1C(N)CC2CC1C2(C)C (stereo not drawn) [3-AMINO-beta-PINENE] (plate: M 17-18) 0.403
CN1CCCN=C1/C=C/c1cccs1 (plate: M 5-6) -0.658
CSCCC(N)C(=O)NC(CC(C)C)C(=O)NC(Cc1ccccc1)C(=O)O (configuration not stated) (plate: M 23-24) 0.367
COc1ccc(-c2cc(=O)c3c(OC)c(OC)c(OC)c(OC)c3o2)cc1 (plate: M 19-20) 0.25
CC12CC3CC(C)(C1)CC(N)(C3)C2 (plate: M 7-8) 0.456
CC(C)=CCc1c(O)cc2oc(C)cc(=O)c2c1O (plate: M 13-14) 0.741
O=C(Nc1ccc([N+](=O)[O-])cc1Cl)c1cc(Cl)ccc1O (plate: M 9-10) -0.348
CCOc1ccc(Cc2nccc3cc(OCC)c(OCC)cc23)cc1OCC (plate: M 23-24) -0.133
Nc1ccc(S(=O)(=O)O)cc1.Nc1ccc(S(=O)(=O)O)cc1.[Zn] (plate: M 9-10) 0.344
C#C[C@]1(O)CC[C@H]2[C@@H]3CCC4=Cc5oncc5C[C@]4(C)[C@H]3CC[C@@]21C (plate: M 1-2) -0.329
Cc1cccc(N(C)C(=S)Oc2ccc3ccccc3c2)c1 (plate: M 5-6) -0.0714
O=C(O)c1cccnc1 (plate: M 3-4) -0.254
CCCCc1oc2ccccc2c1C(=O)c1cc(I)c(OCCN(CC)CC)c(I)c1 (plate: M 11-12) -0.144
CCN1CCCC1CNC(=O)c1cc(S(N)(=O)=O)ccc1OC (configuration not stated) (plate: M 7-8) -0.241
NNC(=O)c1ccncc1 (plate: M 3-4) -0.0403
CCC(=O)OCC(=O)[C@@]1(OC(=O)CC)[C@@H](C)C[C@H]2[C@@H]3CCC4=CC(=O)C=C[C@]4(C)[C@@]3(F)[C@@H](O)C[C@@]21C (plate: M 7-8) 0.142
CC1(C)O[C@@H]2C[C@H]3[C@@H]4C[C@H](F)C5=CC(=O)CC[C@]5(C)[C@H]4[C@@H](O)C[C@]3(C)[C@]2(C(=O)CO)O1 (plate: M 13-14) 0.77
CC1=CCc2c(cc3oc(C)cc(=O)c3c2O)OC1 (plate: M 13-14) 0.143
CC1(C)CC2C1CCC1(C)OC1CCC2(C)O (configuration not stated) (plate: M 21-22) 0.432
C[N+](C)(C)CCOC(N)=O (plate: M 1-2) 0.0815
COC(=O)C[C@H]1C2(C)CC34OC5(C)O[C@@]6([C@H](OC)C(OC(=O)C(C)C)[C@]7(C)C(/C(=C(/OC)C(C)C)C(=O)O[C@H]7c7ccoc7)[C@@]6(O5)[C@H](OC)[C@@]3(OC)C2OC(C)=O)[C@]14C (some centres not stated) (plate: M 15-16) -0.148
CC(C)(C)NC[C@H](O)COc1cccc2c1CCCC2=O (plate: M 11-12) -0.109
COC(=O)[C@H]1[C@H]2C[C@H]3c4[nH]c5cc(OC)ccc5c4CCN3C[C@H]2C[C@@H](OC(=O)c2cc(OC)c(OC)c(OC)c2)[C@@H]1OC (plate: M 23-24) 0.382
COc1cc(O)cc(OC)c1OC (plate: M 15-16) 0.301
O=C(NC(Cc1cc(=O)[nH]c2ccccc12)C(=O)O)c1ccc(Cl)cc1 (configuration not stated) (plate: M 23-24) 0.337
O=C1c2c(O)ccc(O)c2C(=O)c2c(NCCNCCO)ccc(NCCNCCO)c21 (plate: M 9-10) -0.133
CO[C@H]1C[C@H](O[C@@H]2/C(C)=C/C[C@@H]3C[C@@H](C[C@]4(CC[C@H](C)[C@@H](C5CCCCC5)O4)O3)OC(=O)[C@@H]3C=C(C)/C(=N/O)[C@H]4OC/C(=C\C=C\[C@@H]2C)[C@]43O)O[C@@H](C)[C@@H]1O (plate: M 9-10) 0.225
Cc1nc2sccn2c(=O)c1CCN1CCC(=C(c2ccc(F)cc2)c2ccc(F)cc2)CC1 (plate: M 13-14) 0.418
C[C@H](CCC(=O)O)[C@H]1CC[C@H]2[C@@H]3C(=O)C[C@@H]4CC(=O)CC[C@]4(C)[C@H]3CC(=O)[C@]12C (plate: M 1-2) 0.683
C[C@H](CCC(=O)O)[C@H]1CC[C@H]2[C@@H]3C(=O)C[C@@H]4CC(=O)CC[C@]4(C)[C@H]3CC(=O)[C@]12C (plate: M 7-8) 0.396
CN1CCN2c3ccccc3Cc3ccccc3C2C1 (configuration not stated) (plate: M 13-14) 0.793
N[C@@H](Cc1ccc(O)c(O)c1)C(=O)O (plate: M 13-14) 0.49
CCC(C)C(NC)C(=O)O (configuration not stated) (plate: M 17-18) 0.378
O=C(O)CCC(=O)c1ccc(-c2ccccc2)cc1 (plate: M 7-8) 0.103
C[C@H]1[C@H](C)CC[C@]2(C(=O)O)CC[C@]3(C)C(=CC[C@@H]4[C@@]5(C)C[C@@H](O)[C@H](O)[C@@](C)(CO)[C@@H]5[C@H](O)C[C@]43C)[C@H]12 (plate: M 19-20) 0.822

Taken from the entries so far (three entries):
Tryptophan fluorescence intensity z-score, inactive:
CCN1CCCC1CNC(=O)c1cc(S(N)(=O)=O)ccc1OC (configuration not stated) (plate: M 7-8) -0.241
NNC(=O)c1ccncc1 (plate: M 3-4) -0.0403
CCC(=O)OCC(=O)[C@@]1(OC(=O)CC)[C@@H](C)C[C@H]2[C@@H]3CCC4=CC(=O)C=C[C@]4(C)[C@@]3(F)[C@@H](O)C[C@@]21C (plate: M 7-8) 0.142
